The source of these data is article PMC11018898.

The experiment concerns the target Plexin B3 (zebrafish). Description: alkaline phosphatase-tagged ligand binding to transfected cells; supernatant of AP-Sema3 transfected HEK293 cells applied to HEK293 cells transfected with pAG-Plexin B3 and/or pAG-Nrp1a, 1 h at room temperature; cells fixed, heated at 65°C for 90 min, stained with BCIP/NBT.

These are yes or no findings as the source states them, for the method shown. Binding calls can cover weak binding; strength is not graded here. Where a sequence is shown, tags or fusion partners need not be part of it.

B1: alkaline phosphatase-tagged Sema3D (ligand, UniProt Q9W6G6 42-764)
chain: MKESLPRVKLGYKDLIHSRSVVPFTGSSEGQHFQTVLLDEERSRLLLGAKDHVYLLDPDNINKHPKKLSWPASRDRVEMCILAGKNPLTECANFIRVLHSYNRTHVYACGTGAFHPTCAFLEIKGHKEDRWLLLHSNTMESGRMKCPFDPNQPFASVLTDQYLYAGTASDFLGKDSTFTRSLGPPPHQQYIRTDISEDYWINEGKFISAHPISDTYNPDDDKIYFFFREASRDGSTTDKSVLSRVARICRNDVGGLRSLTNKWTTFLKARLVCSIPGPDGVDTHFDELQDIFLLPSRDEKNPMVYGVFTTTSSIFKGSAVCVYTMEDIRAAFNGPYAHKEGPDHRWVEYEGRIPYPRPGTCPSRTYDPHIKTTKDFPDEVISFIRLHPLMYQSVHPMTGRPIFTRINTEYRLTQIIVDRVAAEDGQYAVMFLGTDMGSVLKVVSITQENWSSEEIILEELQVFKNPSPILNMEVSSKQQQLFVGGSDGLVQVSLHRCQIYGQGCAECCLARDPYCAWDGTQCSRYIPASKRRARRQDIKHGDPSSHCWDTEDVLGRNVEEKVLYGVESNSSFLECVSKSQQALIRWFVLKPGVDHRQEIKPDERVLITDRGLLIRWLQRGDAGSYFCTSQEHRFTRTLLHVSLHILDRGQINAHQPAIRESSENPAVTEPRQRYKDYLRMLSGPARSLDEYCETMWHREKKQKQKGKWKHVQELRKSRNRRHH
In the case of B1, the binding entry is reported as “binds”.
